Laboratory results published in PMC5923120, “Acylhydrazones as Antifungal Agents Targeting the Synthesis of Fungal Sphingolipids” (Antimicrobial Agents and Chemotherapy, 2018).

Test system: A549
Assay: In vitro toxicity (MTT), A549
Type: cell-based, human
Details: ratio of IC50 against mammalian cell line and MIC80 against C. neoformans
Procedure: The murine macrophage cell line J774 and human cancer cell lines A549 and HepG2 were maintained in DMEM containing 10% fetal bovine serum (FBS) and 1% penicillin-streptomycin. At passage 7, 10^5 cells/well in DMEM containing 10% FBS were transferred into 96-well plates and cultured for 14 h for the cells to adhere to the wells. The compounds were added to the cells at concentrations ranging from 0.03 to 128 μg/ml. The wells without the compound served as controls. […] After 24 or 48 h, the supernatant was removed and 50 μl of 5-mg/ml 3-(4,5-dimethylthiazol-2-yl)-2,5-diphenyltetrazoliumbromide (MTT) solution in phosphate-buffered saline (PBS) was added to each well. The plates were incubated for an additional 4 h. The formazan crystal formed inside the cell was dissolved by adding 50 μl of dimethyl sulfoxide (DMSO). The optical density was measured at 570 nm.

Row | Compound | SI of A549 or HepG2
1 | Cc1ccccc1C(=O)N/N=C/c1cc(Br)ccc1O [BHBM, (E)-N′-(3-bromo-6-hydroxybenzylidene)-2-methylbenzohydrazide] | 32
2 | O=C(N/N=C/c1cc(Br)cc(Br)c1O)c1ccc(Br)cc1 [D13] | > 4,000
